# Measured values from the supplement of paper PMC10849652.
# The chains behind the UniProt entries cited, without tags or fusion partners. Where a name states a change or a piece, a line headed by the entry shows the natural chain unless it says otherwise.
# UniProt Q13155: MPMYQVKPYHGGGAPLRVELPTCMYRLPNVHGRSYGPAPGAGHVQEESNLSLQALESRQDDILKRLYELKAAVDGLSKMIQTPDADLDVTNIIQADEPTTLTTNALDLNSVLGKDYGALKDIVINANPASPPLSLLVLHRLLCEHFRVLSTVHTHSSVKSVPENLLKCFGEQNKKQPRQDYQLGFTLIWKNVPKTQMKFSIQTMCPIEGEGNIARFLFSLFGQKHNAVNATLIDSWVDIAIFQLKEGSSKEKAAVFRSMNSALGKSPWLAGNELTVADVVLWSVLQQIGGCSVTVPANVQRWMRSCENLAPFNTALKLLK
# UniProt Q8WYP5: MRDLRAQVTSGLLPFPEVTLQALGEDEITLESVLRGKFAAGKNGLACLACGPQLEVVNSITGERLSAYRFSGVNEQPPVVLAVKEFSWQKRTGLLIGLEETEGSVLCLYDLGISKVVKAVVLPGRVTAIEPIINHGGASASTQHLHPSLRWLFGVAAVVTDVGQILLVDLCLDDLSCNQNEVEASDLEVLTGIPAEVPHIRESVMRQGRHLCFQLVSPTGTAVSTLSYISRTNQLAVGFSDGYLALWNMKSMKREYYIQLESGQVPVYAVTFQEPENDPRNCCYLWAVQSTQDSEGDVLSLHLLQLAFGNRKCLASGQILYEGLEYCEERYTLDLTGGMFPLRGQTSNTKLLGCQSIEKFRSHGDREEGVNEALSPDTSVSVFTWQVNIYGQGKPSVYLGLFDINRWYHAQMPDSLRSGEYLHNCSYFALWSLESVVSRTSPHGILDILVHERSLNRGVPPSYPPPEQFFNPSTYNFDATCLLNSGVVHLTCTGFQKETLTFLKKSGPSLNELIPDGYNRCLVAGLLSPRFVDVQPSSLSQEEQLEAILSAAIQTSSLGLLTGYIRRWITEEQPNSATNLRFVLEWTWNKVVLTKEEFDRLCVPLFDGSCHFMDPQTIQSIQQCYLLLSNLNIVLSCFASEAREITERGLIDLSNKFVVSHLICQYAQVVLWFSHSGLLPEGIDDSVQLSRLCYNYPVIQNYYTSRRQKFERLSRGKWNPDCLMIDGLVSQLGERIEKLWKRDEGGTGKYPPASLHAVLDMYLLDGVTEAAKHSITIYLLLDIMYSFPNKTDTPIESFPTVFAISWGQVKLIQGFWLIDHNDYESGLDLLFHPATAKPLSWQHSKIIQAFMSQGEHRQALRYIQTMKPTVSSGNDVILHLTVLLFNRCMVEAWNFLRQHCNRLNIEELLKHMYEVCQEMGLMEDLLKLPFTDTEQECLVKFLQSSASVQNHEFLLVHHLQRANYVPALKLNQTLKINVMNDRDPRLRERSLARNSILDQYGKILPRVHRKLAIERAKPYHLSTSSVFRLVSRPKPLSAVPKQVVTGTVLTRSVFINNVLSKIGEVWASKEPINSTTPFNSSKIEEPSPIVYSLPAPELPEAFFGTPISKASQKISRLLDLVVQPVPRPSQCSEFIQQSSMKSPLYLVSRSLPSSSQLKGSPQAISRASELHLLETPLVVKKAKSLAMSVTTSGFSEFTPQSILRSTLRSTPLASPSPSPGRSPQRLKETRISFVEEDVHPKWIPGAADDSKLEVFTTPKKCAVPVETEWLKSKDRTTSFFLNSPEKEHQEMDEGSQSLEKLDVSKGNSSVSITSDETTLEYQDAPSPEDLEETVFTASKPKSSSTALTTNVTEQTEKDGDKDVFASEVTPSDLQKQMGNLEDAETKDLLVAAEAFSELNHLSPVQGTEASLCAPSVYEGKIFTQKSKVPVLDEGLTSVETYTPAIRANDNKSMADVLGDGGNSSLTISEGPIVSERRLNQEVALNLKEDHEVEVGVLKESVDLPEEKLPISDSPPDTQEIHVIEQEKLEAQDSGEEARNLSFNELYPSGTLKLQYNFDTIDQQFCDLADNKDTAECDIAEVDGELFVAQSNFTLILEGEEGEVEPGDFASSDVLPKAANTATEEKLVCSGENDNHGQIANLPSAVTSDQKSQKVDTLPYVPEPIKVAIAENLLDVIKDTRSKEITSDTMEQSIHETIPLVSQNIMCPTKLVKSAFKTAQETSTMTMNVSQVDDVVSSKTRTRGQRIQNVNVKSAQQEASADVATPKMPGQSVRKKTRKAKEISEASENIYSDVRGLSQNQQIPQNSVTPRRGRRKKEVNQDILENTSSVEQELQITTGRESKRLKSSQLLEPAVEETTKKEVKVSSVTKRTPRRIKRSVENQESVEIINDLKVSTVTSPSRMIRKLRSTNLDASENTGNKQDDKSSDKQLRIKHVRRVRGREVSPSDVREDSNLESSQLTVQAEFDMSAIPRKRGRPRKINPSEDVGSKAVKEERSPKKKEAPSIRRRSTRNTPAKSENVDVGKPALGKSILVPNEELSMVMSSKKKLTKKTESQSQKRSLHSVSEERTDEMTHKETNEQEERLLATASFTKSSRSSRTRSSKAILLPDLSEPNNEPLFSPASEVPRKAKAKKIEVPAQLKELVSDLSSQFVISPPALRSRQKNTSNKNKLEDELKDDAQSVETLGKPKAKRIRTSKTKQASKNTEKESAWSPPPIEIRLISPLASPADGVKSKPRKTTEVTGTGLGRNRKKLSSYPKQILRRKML
# UniProt P35573: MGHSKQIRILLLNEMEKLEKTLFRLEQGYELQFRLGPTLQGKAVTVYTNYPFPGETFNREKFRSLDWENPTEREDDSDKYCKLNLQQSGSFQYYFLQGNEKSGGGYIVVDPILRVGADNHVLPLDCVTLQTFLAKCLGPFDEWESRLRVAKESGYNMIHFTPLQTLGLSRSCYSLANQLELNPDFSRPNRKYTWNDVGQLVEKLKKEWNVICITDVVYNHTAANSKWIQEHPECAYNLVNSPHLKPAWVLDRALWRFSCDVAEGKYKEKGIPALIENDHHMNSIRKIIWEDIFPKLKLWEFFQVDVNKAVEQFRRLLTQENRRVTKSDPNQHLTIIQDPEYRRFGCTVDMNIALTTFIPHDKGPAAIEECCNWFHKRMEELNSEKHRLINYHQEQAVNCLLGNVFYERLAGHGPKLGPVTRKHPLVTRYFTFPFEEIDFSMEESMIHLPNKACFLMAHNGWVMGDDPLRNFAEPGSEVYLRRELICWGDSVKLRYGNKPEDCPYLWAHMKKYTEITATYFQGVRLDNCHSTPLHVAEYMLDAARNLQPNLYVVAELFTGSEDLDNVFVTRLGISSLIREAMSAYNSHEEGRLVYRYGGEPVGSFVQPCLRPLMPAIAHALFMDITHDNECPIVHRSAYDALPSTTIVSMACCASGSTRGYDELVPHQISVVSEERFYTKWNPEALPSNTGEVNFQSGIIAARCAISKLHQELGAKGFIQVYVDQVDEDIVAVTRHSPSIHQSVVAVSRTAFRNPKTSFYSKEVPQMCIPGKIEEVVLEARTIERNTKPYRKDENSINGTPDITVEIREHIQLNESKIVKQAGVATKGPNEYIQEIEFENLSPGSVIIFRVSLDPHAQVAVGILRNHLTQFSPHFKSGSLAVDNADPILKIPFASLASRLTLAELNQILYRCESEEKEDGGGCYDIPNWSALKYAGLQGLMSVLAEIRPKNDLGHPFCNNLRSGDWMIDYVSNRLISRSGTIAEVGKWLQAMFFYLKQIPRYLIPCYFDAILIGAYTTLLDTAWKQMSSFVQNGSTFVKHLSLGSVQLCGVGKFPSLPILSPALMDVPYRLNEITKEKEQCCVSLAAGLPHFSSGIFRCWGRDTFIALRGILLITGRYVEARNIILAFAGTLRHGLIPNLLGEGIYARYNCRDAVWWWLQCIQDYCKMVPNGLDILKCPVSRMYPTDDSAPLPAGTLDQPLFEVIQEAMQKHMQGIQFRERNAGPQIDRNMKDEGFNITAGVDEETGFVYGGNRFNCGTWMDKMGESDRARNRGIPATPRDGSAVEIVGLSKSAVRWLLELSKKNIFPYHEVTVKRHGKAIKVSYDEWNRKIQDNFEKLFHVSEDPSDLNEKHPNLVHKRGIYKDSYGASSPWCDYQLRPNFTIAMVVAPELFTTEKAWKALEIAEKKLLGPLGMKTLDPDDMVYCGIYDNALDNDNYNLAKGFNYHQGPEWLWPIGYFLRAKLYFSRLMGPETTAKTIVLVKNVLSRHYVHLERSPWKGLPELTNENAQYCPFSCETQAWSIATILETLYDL
# UniProt Q9H6U8: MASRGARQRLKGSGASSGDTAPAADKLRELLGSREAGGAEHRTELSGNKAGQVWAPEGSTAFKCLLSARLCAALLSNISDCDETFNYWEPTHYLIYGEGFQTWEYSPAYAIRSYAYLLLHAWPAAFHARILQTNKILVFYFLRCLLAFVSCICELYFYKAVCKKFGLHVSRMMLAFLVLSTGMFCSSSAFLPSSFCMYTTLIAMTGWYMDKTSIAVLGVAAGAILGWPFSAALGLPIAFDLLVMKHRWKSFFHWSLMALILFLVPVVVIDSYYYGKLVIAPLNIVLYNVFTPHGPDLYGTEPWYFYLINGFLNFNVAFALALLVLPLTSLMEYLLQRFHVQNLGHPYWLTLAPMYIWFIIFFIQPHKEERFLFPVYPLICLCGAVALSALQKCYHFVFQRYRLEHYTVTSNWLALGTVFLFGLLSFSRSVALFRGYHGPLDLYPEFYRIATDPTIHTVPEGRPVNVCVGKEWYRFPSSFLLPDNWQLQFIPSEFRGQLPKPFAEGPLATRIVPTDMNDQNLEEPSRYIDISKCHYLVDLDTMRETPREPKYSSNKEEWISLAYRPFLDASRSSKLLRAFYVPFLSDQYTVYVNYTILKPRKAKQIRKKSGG
# UniProt Q9UHX3: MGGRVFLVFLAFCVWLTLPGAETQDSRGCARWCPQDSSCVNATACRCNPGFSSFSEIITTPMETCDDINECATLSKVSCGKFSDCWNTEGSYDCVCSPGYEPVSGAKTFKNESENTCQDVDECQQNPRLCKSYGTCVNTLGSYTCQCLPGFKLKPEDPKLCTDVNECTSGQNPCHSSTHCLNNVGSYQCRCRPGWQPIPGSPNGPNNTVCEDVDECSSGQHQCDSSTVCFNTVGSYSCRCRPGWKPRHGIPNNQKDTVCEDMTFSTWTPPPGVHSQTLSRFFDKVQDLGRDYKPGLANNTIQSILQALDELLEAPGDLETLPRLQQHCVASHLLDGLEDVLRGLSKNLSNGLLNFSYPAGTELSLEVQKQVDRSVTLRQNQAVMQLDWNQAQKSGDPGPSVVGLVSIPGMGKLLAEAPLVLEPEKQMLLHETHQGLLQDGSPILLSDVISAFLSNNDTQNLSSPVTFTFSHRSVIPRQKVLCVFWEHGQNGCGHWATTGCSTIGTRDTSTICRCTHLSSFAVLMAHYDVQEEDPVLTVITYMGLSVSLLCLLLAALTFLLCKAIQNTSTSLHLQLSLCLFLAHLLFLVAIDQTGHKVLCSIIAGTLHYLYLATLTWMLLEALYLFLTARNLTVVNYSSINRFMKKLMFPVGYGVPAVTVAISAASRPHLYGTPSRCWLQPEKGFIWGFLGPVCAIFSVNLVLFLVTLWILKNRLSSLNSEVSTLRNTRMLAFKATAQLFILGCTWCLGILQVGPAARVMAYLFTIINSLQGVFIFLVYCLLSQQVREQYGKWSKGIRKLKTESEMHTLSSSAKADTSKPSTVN
# UniProt Q96BJ3: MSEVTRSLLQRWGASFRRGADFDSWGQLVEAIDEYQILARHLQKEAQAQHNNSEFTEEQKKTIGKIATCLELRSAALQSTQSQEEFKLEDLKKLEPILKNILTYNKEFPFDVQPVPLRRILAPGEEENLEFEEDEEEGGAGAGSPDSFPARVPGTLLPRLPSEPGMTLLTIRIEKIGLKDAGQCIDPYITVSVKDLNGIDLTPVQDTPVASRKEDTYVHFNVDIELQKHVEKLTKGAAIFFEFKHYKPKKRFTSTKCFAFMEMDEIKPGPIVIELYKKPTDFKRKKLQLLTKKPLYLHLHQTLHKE
# UniProt P52895: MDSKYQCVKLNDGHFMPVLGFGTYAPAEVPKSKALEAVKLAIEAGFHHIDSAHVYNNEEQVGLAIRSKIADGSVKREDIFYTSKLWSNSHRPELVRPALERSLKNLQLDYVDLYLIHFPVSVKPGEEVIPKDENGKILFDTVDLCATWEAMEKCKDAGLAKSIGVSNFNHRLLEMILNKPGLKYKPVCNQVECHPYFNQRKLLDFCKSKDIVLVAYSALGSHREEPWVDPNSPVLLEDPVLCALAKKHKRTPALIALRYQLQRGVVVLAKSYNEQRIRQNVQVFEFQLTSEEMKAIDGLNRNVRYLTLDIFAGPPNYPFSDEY
# UniProt Q9BV57: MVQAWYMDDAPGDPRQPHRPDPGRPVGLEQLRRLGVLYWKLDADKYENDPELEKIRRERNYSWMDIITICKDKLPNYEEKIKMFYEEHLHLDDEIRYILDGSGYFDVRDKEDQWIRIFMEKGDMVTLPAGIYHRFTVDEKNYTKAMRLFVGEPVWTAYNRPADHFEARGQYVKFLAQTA
# UniProt P00568: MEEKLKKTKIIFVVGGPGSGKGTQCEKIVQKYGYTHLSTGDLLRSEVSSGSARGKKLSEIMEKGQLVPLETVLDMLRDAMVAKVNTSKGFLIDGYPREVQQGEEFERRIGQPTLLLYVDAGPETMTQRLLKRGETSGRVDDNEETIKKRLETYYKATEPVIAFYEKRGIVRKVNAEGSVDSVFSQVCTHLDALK
# This is one part of the list. Residues, ends and D or L forms follow the SMILES beside them. *: point of attachment. Cbz = O=C(OCc1ccccc1)*
# Assays:
# Assay in all cases: log2 fold change, soluble protein after heating vs DMSO (PISA); higher = thermal stabilisation; K562 cells, 10 uM, 30 min; active = over 0.2 and 3.5 SD of the protein, either way, in both replicates (recomputed)
# IRAK-1-4 Inhibitor I = compound: C1COCCN1CCN2C3=CC=CC=C3N=C2NC(=O)C4=CC(=CC=C4)[N+](=O)[O-] [IRAK-1-4 Inhibitor I]
# Procedure, shortened: (§1)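 K562 cells at 2×10^6 cells/mL were treated for 30 min with 10 μM compound, and aliquots were heated for 3 min over 48°C-58°C before pooling. Extraction used PBS with 0.5% NP-40 at 4°C, and soluble protein was the supernatant after 21,000xg for 90 min, measured by TMTpro 16plex LC-MS/MS with channel sums equalised. Thermal stability values, relative to control samples and from duplicates, are log2 fold changes.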
# ibrutinib = compound: C=CC(=O)N1CCC[C@@H](n2nc(-c3ccc(Oc4ccccc4)cc3)c3c(N)ncnc32)C1 [ibrutinib]
# Procedure, shortened: as §1
# [1] = compound: CC(=O)c1cnc2ccc(-c3cc(Cl)c(O)c(Cl)c3)nc2c1N[C@H]1CC[C@H](CN(C)C)CC1
# Procedure, shortened: as §1
# ralimetinib = compound: CC(C)(C)Cn1c(N)nc2ccc(-c3[nH]c(C(C)(C)C)nc3-c3ccc(F)cc3)nc21 [ralimetinib]
# Procedure, shortened: as §1
# [2] = compound: CC(C)(O)CC(=O)NCCn1ccc2ncnc(Nc3ccc(Oc4cccc(C(F)(F)F)c4)c(Cl)c3)c21
# Procedure, shortened: as §1
# [3] = compound: CC(C)C1=C2N=C(C=C(N2N=C1)NCC3=CC=CC=C3)NCCCCCCN
# Procedure, shortened: as §1
# [4] = compound: CC(C)C[C@@H](C=O)NC(=O)[C@H](CC(C)C)NC(=O)[C@H](CC(C)C)NC(=O)OCc1ccccc1
# Procedure, shortened: as §1
# pinometostat = compound: CC(C)N(C[C@H]1O[C@@H](n2cnc3c(N)ncnc32)[C@H](O)[C@@H]1O)[C@H]1C[C@@H](CCc2nc3cc(C(C)(C)C)ccc3[nH]2)C1 [pinometostat]
# Procedure, shortened: as §1
# [5] = compound: CC1=C(C(CC(=O)N1)C2=CC=C(C=C2)C(F)(F)F)C(=O)NC3=C(C=C4C(=C3)C=NN4)F
# Procedure, shortened: as §1
# [6] = compound: CC1=C(C2=C(C=C1)C(=O)C3=CC=CC=C3N2CCCN)C
# Procedure, shortened: as §1
# [7] = compound: CC1=C(C=C(C=C1)NC(=O)C2=CC(=CC=C2)C(C)(C)C#N)NC3=CC4=C(C=C3)N=CN(C4=O)C
# Procedure, shortened: as §1
# [8] = compound: CC1=C(C=C(C=C1)NC(=O)C2=CC(=CC=C2)N(C)C)NC(=O)C3=CC=C(C=C3)O
# Procedure, shortened: as §1
# [9] = compound: CC1=CC=C(C=C1)SC2=C3C=C(SC3=CN=C2)C(=O)N
# Procedure, shortened: as §1
# [10] = compound: CC1=NC(=CC=C1)C2=C(N=C(N2)C(C)(C)C)C3=CC4=NC=CN=C4C=C3
# Procedure, shortened: as §1
# Nexturastat A = compound: CCCCN(Cc1ccc(C(=O)NO)cc1)C(=O)Nc1ccccc1 [Nexturastat A]
# Procedure, shortened: as §1
# vemurafenib = compound: CCCS(=O)(=O)Nc1ccc(F)c(C(=O)c2c[nH]c3ncc(-c4ccc(Cl)cc4)cc23)c1F [vemurafenib]
# Procedure, shortened: as §1
# [11] = compound: CCCS(=O)(=O)Nc1ccc(F)c(C(=O)c2c[nH]c3ncc(Cl)cc23)c1F
# Procedure, shortened: as §1
# [12] = compound: CCCc1cc(C)[nH]c(=O)c1CNC(=O)c1cc(-c2ccnc(N3CCN(C)CC3)c2)cc2c1cnn2C(C)C
# Procedure, shortened: as §1
# givinostat = compound: CCN(CC)Cc1ccc2cc(COC(=O)Nc3ccc(C(=O)NO)cc3)ccc2c1 [givinostat]
# Procedure, shortened: as §1
# barasertib = compound: CCN(CCCOc1ccc2c(Nc3cc(CC(=O)Nc4cccc(F)c4)[nH]n3)ncnc2c1)CCOP(=O)(O)O [barasertib]
# Procedure, shortened: as §1
Target,log2 fold change (IRAK-1-4 Inhibitor I),log2 fold change (ibrutinib),log2 fold change [1],log2 fold change (ralimetinib),log2 fold change [2],log2 fold change [3],log2 fold change [4],log2 fold change (pinometostat),log2 fold change [5],log2 fold change [6],log2 fold change [7],log2 fold change [8],log2 fold change [9],log2 fold change [10],log2 fold change (Nexturastat A),log2 fold change (vemurafenib),log2 fold change [11],log2 fold change [12],log2 fold change (givinostat),log2 fold change (barasertib)
AIMP2 (UniProt Q13155),inactive: -0.105,inactive: 0.025,inactive: 0.285,inactive: 0.203,inactive: 0.054,inactive: -0.353,inactive: 0.141,inactive: 0.428,inactive: 0.05,inactive: -0.07,inactive: -0.013,inactive: 0.038,inactive: -0.011,inactive: -0.092,inactive: 0.593,inactive: -0.043,inactive: -0.004,inactive: 0.115,inactive: 0.068,inactive: -0.032
AKR7A2 (UniProt O43488),inactive: 0.042,inactive: -0.001,inactive: 0.069,inactive: -0.037,inactive: -0.028,inactive: -0.007,inactive: 0.02,inactive: -0.033,inactive: -0.008,inactive: -0.004,inactive: 0.02,inactive: 0.015,inactive: 0.074,inactive: 0.027,inactive: -0.061,inactive: 0.04,inactive: 0.136,inactive: 0.18,inactive: -0.056,inactive: 0.025
ALDH5A1 isoform 2 (UniProt P51649),inactive: 0.033,inactive: 0.013,inactive: 0.015,inactive: -0.063,inactive: -0.001,inactive: 0.04,inactive: -0.007,inactive: -0.045,inactive: -0.004,inactive: 0.013,inactive: -0.026,inactive: 0.002,inactive: 0.025,inactive: 0.012,inactive: -0.043,inactive: 0.008,inactive: 0.031,inactive: -0.032,inactive: -0.032,inactive: -0.006
AHCTF1 isoform 2 (UniProt Q8WYP5),inactive: -0.034,inactive: 0.054,inactive: -0.008,inactive: 0.002,inactive: 0.053,inactive: -0.089,inactive: 0.028,inactive: 0.061,inactive: -0.044,inactive: 0.062,inactive: -0.11,inactive: 0.027,,inactive: -0.119,inactive: 0.167,inactive: 0.016,,inactive: 0.03,inactive: 0.058,inactive: 0.025
AHNAK (UniProt Q09666),inactive: 0.012,inactive: 0,inactive: -0.061,inactive: 0.002,inactive: 0.069,inactive: 0.16,inactive: -0.04,inactive: 0.016,inactive: -0.015,inactive: 0.056,inactive: -0.091,inactive: 0.02,inactive: -0.05,inactive: -0.068,inactive: -0.001,inactive: 0.001,inactive: -0.004,inactive: -0.039,inactive: 0.026,inactive: -0.006
ADH5 (UniProt P11766),inactive: 0.038,inactive: 0.011,inactive: 0.014,inactive: -0.097,inactive: -0.02,inactive: 0.05,inactive: -0.041,inactive: -0.05,,inactive: 0.019,inactive: 0.004,inactive: 0.008,inactive: 0.043,inactive: 0.009,inactive: -0.103,inactive: -0.007,inactive: 0.008,inactive: -0.046,inactive: -0.01,inactive: -0.023
ALDH9A1 isoform 3 (UniProt P49189),inactive: 0.059,inactive: 0.025,inactive: 0.003,inactive: -0.047,inactive: -0.004,inactive: 0.019,inactive: -0.022,inactive: -0.013,,inactive: -0.003,inactive: 0.01,inactive: 0.012,inactive: 0.03,inactive: 0.01,inactive: -0.049,inactive: 0.006,inactive: 0.006,inactive: -0.019,inactive: -0.005,inactive: 0.01
AGL (UniProt P35573),inactive: -0.168,inactive: -0.008,inactive: -0.054,inactive: 0.071,inactive: 0.027,inactive: -0.106,inactive: 0.091,inactive: 0.182,inactive: -0.005,inactive: 0.067,inactive: 0.13,inactive: -0.012,inactive: -0.058,inactive: -0.03,inactive: 0.165,inactive: -0.016,inactive: 0.011,inactive: 0.081,inactive: 0.065,inactive: -0.019
ALG9 isoform 3 (UniProt Q9H6U8),inactive: 0.035,inactive: 0.019,inactive: -0.038,inactive: -0.055,inactive: 0.005,inactive: -0.053,inactive: 0.002,inactive: 0.023,inactive: -0.007,inactive: 0.024,inactive: -0.044,inactive: 0.009,inactive: 0.004,inactive: -0.03,inactive: 0.006,inactive: -0.028,inactive: -0.04,inactive: -0.009,inactive: -0.005,inactive: -0.008
ADGRE2 (UniProt Q9UHX3),inactive: 0.056,inactive: 0.035,inactive: -0.016,inactive: 0.057,inactive: 0.011,inactive: 0.084,inactive: 0.005,inactive: 0.011,inactive: 0.033,inactive: 0.071,inactive: -0.024,inactive: -0.049,inactive: -0.036,inactive: -0.011,inactive: 0.016,inactive: 0,inactive: 0.046,inactive: -0.16,inactive: 0.064,inactive: 0.003
AIDA (UniProt Q96BJ3),inactive: 0.014,inactive: 0.02,inactive: -0.022,inactive: -0.012,inactive: -0.051,inactive: 0.016,inactive: -0.075,inactive: -0.02,inactive: -0.017,inactive: -0.013,inactive: 0.03,inactive: 0.019,inactive: -0.015,inactive: -0.032,inactive: -0.006,inactive: 0.015,inactive: 0.008,inactive: -0.045,inactive: 0.031,inactive: 0.044
AGTRAP (UniProt Q6RW13),inactive: 0.009,inactive: -0.042,inactive: -0.125,inactive: -0.062,inactive: -0.023,inactive: -0.059,inactive: 0.066,inactive: 0.016,inactive: -0.051,inactive: 0.13,inactive: -0.027,inactive: 0.097,inactive: 0.01,inactive: -0.108,inactive: 0,inactive: 0.075,inactive: 0.006,inactive: -0.148,inactive: -0.082,inactive: -0.023
AKAP8 (UniProt O43823),inactive: 0.058,inactive: 0.002,inactive: -0.205,inactive: -0.018,inactive: -0.097,inactive: 0.019,inactive: 0.054,inactive: 0.003,,inactive: -0.113,inactive: -0.082,inactive: 0.029,inactive: -0.03,inactive: -0.009,active: 0.313,inactive: -0.062,inactive: -0.05,inactive: -0.034,inactive: -0.027,inactive: 0.024
AKR1C2 (UniProt P52895),inactive: -0.218,inactive: 0.006,inactive: -0.043,inactive: -0.015,inactive: 0.099,inactive: -0.16,inactive: -0.043,inactive: 0.049,,inactive: -0.063,inactive: -0.153,inactive: -0.222,inactive: -0.166,inactive: -0.077,inactive: 0.205,inactive: -0.046,inactive: -0.179,inactive: 0.024,inactive: 0.159,inactive: -0.018
ADI1 (UniProt Q9BV57),inactive: -0.005,inactive: -0.06,inactive: -0.072,inactive: -0.028,inactive: -0.01,inactive: 0.004,inactive: 0.019,inactive: 0.083,inactive: -0.045,inactive: -0.021,inactive: -0.031,inactive: -0.063,inactive: 0.003,inactive: -0.019,inactive: -0.04,inactive: -0.025,inactive: 0,inactive: -0.341,inactive: -0.172,inactive: 0.042
AK1 (UniProt P00568),inactive: 0.028,inactive: 0.018,inactive: -0.023,inactive: 0.021,inactive: -0.067,inactive: -0.002,inactive: -0.032,inactive: -0.017,inactive: -0.007,inactive: 0.059,inactive: 0.039,inactive: 0.009,inactive: -0.013,inactive: 0.013,inactive: -0.033,inactive: 0.044,inactive: 0.05,inactive: -0.066,inactive: -0.029,inactive: 0.013

# A few values from the list:
# In log2 fold change (pinometostat), AIMP2 (UniProt Q13155) has the entry inactive: 0.428
# In log2 fold change [6], ALG9 isoform 3 (UniProt Q9H6U8) has the entry inactive: 0.024
